Laboratory results taken from the supplement of paper PMC10849652.
This is one part of the list.

Sequences of proteins named here, by UniProt entry; tags and fusion partners are left off. A change or cut given only in a name is not applied to a line headed by its entry.
UniProt P52849: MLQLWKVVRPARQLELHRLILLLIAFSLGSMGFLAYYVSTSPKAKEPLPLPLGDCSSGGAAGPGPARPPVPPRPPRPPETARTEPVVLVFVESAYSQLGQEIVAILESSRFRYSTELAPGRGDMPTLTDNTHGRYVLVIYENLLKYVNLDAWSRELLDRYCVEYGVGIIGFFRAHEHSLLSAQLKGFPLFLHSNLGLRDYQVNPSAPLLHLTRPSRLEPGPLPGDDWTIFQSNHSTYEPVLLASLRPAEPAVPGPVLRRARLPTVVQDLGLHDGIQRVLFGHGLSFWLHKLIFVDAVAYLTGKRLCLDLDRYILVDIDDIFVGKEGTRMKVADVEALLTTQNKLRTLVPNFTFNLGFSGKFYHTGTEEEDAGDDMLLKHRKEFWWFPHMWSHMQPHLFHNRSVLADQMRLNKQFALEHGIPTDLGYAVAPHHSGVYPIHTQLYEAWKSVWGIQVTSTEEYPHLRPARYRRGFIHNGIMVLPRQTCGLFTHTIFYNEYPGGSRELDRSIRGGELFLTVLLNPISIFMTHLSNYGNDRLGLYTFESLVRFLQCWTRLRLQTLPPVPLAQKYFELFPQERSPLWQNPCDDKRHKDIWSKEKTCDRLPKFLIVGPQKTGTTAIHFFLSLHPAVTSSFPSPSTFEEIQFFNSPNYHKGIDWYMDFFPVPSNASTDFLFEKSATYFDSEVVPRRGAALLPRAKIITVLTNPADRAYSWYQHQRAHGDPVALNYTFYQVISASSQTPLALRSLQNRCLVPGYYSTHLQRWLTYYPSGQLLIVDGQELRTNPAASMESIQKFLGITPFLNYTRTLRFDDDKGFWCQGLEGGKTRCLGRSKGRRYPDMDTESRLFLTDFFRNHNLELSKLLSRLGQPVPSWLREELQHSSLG
UniProt Q6ZNJ1: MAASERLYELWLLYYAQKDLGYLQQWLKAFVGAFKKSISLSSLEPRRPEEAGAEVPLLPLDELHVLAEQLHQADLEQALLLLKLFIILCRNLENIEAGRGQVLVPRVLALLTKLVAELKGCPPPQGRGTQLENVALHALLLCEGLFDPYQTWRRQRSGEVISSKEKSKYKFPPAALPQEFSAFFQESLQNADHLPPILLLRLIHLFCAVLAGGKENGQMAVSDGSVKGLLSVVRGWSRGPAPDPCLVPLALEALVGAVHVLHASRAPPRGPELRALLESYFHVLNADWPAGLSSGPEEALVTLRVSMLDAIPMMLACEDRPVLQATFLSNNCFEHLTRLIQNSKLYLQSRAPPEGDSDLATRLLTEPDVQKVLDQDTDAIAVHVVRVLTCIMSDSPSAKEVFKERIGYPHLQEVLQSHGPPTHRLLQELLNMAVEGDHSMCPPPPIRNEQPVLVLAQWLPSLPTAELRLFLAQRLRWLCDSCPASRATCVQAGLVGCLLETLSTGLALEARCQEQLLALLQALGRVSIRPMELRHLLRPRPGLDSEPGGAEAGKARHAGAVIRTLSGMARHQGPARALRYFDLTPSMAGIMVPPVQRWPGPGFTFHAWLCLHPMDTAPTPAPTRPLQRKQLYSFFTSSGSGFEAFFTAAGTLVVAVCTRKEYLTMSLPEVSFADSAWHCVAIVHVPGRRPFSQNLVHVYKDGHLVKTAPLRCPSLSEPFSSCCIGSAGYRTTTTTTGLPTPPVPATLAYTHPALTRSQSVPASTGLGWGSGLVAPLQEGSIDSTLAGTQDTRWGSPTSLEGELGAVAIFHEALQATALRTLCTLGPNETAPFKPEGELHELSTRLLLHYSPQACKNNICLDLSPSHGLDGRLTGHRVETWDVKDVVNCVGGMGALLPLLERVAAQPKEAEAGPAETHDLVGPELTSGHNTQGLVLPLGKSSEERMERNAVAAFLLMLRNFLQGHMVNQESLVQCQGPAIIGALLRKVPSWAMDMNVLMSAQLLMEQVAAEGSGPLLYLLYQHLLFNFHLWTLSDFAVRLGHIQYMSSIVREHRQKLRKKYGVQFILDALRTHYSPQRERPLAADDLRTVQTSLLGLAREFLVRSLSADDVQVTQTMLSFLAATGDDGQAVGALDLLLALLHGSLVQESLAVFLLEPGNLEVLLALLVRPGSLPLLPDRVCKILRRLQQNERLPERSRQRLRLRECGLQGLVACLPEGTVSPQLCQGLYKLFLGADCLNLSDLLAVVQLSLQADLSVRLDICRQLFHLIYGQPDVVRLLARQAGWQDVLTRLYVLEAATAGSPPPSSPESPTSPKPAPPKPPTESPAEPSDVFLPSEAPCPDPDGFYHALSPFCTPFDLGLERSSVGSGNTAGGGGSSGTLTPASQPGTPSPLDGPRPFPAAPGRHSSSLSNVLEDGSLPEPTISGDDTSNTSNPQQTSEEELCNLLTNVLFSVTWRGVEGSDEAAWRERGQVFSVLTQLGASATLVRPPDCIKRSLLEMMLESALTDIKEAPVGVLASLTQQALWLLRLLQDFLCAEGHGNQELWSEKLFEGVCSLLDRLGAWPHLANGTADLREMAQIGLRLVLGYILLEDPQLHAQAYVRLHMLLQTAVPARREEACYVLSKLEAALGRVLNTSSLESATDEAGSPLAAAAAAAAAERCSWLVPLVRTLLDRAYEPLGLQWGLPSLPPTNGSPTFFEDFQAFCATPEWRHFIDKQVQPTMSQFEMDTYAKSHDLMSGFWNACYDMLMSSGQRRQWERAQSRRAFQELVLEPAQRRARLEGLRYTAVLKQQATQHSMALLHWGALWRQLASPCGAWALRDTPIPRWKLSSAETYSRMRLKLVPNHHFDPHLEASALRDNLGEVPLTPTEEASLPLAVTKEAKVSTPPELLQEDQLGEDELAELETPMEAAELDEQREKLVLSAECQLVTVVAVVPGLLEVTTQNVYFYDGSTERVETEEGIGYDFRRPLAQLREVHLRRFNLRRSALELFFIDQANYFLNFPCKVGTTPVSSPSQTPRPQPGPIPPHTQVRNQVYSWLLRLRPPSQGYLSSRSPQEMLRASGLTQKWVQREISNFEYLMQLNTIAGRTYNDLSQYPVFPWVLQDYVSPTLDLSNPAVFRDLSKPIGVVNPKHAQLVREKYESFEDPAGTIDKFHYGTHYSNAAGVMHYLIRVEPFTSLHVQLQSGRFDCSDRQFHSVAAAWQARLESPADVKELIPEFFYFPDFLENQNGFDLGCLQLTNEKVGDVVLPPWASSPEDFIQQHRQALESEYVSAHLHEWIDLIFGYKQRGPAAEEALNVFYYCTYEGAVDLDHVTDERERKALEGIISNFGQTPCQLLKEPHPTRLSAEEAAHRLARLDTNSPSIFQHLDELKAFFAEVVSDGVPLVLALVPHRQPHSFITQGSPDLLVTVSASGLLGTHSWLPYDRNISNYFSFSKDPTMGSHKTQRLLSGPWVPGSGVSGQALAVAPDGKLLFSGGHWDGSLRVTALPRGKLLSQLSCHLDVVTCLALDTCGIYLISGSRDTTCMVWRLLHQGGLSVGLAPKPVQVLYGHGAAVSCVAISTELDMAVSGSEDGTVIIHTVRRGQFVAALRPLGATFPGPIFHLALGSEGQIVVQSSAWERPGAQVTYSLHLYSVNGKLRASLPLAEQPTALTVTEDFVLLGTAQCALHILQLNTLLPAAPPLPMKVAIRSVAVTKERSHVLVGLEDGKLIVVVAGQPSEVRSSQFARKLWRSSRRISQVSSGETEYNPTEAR
UniProt Q6ZVX7: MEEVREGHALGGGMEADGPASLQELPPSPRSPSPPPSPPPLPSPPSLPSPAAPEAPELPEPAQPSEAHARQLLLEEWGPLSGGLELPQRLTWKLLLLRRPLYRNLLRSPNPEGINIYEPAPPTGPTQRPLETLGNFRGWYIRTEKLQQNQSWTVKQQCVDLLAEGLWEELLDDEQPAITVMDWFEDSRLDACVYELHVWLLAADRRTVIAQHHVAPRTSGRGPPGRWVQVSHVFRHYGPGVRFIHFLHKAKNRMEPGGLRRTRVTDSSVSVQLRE
NBDY, A0A0U1RRE5, UniProt A0A0U1RRE5, whole entry, looked up: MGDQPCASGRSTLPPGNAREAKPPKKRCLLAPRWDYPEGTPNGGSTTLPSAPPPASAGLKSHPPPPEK
UniProt O43677, whole entry, looked up: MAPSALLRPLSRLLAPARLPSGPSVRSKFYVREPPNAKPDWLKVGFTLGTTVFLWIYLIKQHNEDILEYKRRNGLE
UniProt Q9GZM8: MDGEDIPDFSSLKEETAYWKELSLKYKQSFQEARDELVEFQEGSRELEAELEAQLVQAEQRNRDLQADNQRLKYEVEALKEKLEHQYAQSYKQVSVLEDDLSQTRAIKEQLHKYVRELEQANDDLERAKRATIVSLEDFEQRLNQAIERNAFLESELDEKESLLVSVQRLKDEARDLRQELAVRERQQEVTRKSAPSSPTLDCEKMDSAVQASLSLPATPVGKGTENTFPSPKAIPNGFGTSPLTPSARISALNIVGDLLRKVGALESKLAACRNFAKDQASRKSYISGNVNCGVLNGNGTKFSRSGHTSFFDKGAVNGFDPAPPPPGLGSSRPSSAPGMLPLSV
UniProt Q9HCD5: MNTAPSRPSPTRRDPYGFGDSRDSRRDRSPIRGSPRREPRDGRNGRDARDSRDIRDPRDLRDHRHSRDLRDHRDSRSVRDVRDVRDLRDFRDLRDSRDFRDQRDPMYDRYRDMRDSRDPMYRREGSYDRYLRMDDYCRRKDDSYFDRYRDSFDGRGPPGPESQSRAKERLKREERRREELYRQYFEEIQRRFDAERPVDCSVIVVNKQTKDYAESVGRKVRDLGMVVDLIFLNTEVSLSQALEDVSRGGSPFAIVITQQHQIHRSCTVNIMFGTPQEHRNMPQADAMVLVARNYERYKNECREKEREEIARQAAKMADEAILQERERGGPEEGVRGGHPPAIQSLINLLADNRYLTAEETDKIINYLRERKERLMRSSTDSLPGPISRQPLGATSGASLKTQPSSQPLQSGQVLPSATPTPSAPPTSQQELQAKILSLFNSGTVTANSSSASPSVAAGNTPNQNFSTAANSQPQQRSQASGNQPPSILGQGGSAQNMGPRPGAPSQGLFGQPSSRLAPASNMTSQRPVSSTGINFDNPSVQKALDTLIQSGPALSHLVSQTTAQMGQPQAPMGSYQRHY
UniProt O95167, whole entry, looked up: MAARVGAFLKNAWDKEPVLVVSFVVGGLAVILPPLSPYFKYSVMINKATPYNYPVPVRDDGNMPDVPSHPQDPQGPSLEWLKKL
UniProt B2RBV5: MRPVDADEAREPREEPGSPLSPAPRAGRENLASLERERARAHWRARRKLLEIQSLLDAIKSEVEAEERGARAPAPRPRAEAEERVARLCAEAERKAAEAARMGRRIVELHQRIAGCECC
UniProt Q9HCH0: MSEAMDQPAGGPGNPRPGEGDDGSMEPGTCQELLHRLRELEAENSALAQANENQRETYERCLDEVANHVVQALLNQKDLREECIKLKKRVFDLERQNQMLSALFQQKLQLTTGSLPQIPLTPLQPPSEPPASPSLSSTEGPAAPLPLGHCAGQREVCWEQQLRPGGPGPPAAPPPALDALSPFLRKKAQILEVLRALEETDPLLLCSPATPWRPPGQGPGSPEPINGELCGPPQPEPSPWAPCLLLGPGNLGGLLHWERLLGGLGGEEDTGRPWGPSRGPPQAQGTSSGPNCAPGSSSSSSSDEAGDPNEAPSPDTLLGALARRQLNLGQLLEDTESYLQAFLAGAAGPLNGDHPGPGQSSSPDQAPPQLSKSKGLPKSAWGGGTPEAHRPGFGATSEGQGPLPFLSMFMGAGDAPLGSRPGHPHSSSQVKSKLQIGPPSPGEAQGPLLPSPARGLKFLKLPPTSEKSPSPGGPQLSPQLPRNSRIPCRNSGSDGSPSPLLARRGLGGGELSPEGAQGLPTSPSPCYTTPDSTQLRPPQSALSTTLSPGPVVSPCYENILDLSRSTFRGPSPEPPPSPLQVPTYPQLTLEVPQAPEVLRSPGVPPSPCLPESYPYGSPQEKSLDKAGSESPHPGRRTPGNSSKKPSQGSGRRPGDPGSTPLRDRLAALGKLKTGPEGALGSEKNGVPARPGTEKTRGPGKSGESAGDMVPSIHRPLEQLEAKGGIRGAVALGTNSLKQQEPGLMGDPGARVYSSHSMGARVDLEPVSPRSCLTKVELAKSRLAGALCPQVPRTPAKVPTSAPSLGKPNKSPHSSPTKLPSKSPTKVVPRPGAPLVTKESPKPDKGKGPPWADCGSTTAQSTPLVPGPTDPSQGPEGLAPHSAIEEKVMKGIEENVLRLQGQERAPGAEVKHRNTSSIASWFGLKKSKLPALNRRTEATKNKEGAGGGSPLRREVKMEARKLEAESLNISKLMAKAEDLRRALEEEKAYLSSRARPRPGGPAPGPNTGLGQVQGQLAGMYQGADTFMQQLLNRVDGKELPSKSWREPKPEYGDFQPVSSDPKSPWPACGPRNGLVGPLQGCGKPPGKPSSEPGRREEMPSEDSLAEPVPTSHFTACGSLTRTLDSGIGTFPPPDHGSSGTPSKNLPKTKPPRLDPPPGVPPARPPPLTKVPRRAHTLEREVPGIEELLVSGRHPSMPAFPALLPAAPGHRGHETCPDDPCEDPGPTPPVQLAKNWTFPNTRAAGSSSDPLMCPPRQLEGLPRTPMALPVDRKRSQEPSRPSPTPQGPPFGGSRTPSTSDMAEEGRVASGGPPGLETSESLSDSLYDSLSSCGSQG

Columns and labels:
Test in all cases: log2 fold change, soluble protein after heating vs DMSO (PISA); higher = thermal stabilisation; K562 cells, 10 uM, 30 min; active = over 0.2 and 3.5 SD of the protein, either way, in both replicates (recomputed)
[1] = compound: COC1=CC=C(C=C1)CN2C=CC3=C2C=C(C=C3)C(=O)NO
Method in brief: (§1)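 Values are thermal stability changes relative to control samples and are taken from duplicates. They are stated as log2 fold changes. Before quantification by TMTpro 16plex LC-MS/MS with equalised channel sums, K562 cells at 2×10^6 cells/mL were treated with 10 μM compound for 30 min, heated in aliquots for 3 min across 48°C-58°C, pooled, extracted in PBS with 0.5% NP-40 at 4°C, and centrifuged at 21,000xg for 90 min to give the soluble supernatant.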

filanesib = compound: CON(C)C(=O)N1N=C(c2cc(F)ccc2F)S[C@@]1(CCCN)c1ccccc1 [filanesib]
Method in brief: as §1

idasanutlin = compound: COc1cc(C(=O)O)ccc1NC(=O)[C@@H]1N[C@@H](CC(C)(C)C)[C@](C#N)(c2ccc(Cl)cc2F)[C@H]1c1cccc(Cl)c1F [idasanutlin]
Method in brief: as §1

alisertib = compound: COc1cc(Nc2ncc3c(n2)-c2ccc(Cl)cc2C(c2c(F)cccc2OC)=NC3)ccc1C(=O)O [alisertib]
Method in brief: as §1

gefitinib = compound: COc1cc2ncnc(Nc3ccc(F)c(Cl)c3)c2cc1OCCCN1CCOCC1 [gefitinib]
Method in brief: as §1

[2] = compound: COc1cccc2cc(-c3nc([C@H]4CC[C@H](C(=O)O)CC4)n4ncnc(N)c34)[nH]c12
Method in brief: as §1

zotarolimus = compound: CO[C@H]1C[C@@H]2CC[C@@H](C)[C@@](O)(O2)C(=O)C(=O)N2CCCC[C@H]2C(=O)O[C@H]([C@H](C)C[C@@H]2CC[C@H](n3cnnn3)[C@H](OC)C2)CC(=O)[C@H](C)/C=C(\C)[C@@H](O)[C@@H](OC)C(=O)[C@H](C)C[C@H](C)/C=C/C=C/C=C/1C [zotarolimus]
Method in brief: as §1

pictilisib = compound: CS(=O)(=O)N1CCN(Cc2cc3nc(-c4cccc5[nH]ncc45)nc(N4CCOCC4)c3s2)CC1 [pictilisib]
Method in brief: as §1

[3] = compound: COc1cc2nc(-c3cc(F)ccc3O)nc(N[C@@H]3CNC[C@H]3C(C)(C)O)c2cc1OC
Method in brief: as §1

lapatinib = compound: CS(=O)(=O)CCNCc1ccc(-c2ccc3ncnc(Nc4ccc(OCc5cccc(F)c5)c(Cl)c4)c3c2)o1 [lapatinib]
Method in brief: as §1

Measured: log2 fold change

NDST2 (UniProt P52849)
inactive: [1] 0.017 | filanesib 0.07 | idasanutlin 0.04 | alisertib -0.056 | gefitinib 0.328 | [2] -0.046

NEK1 isoform 3 (UniProt Q96PY6)
inactive: [1] 0.285 | zotarolimus -0.156 | idasanutlin -0.061

NBEAL2 (UniProt Q6ZNJ1)
inactive: [1] 0.159 | zotarolimus -0.013 | alisertib -0.195 | [2] -0.026 | pictilisib -0.065

NAA40 (UniProt Q86UY6)
inactive: [1] -0.235 | zotarolimus 0.123 | pictilisib 0.114

NCKIPSD (UniProt Q9NZQ3)
inactive: idasanutlin 0.021 | [3] -0.087 | lapatinib 0.122 | pictilisib 0.157

NCAPH2 isoform 4 (UniProt Q6IBW4)
inactive: [1] -0.159 | idasanutlin 0.078 | alisertib -0.151 | gefitinib 0.15 | [2] -0.413

NA (UniProt J3KR12)
inactive: [1] 0.123 | alisertib -0.116 | gefitinib -0.134 | [2] 0.077

NCCRP1 (UniProt Q6ZVX7)
inactive: [1] 0.207 | idasanutlin 0.386 | alisertib 1.27 | [2] 0.043

NBDY, A0A0U1RRE5
inactive: zotarolimus -0.058 | idasanutlin 0.02 | alisertib 0.016 | [3] 0.227 | gefitinib 0.029 | [2] 0.122 | lapatinib 0.002 | pictilisib -0.044

NAP1L4 (UniProt C9J6D1)
inactive: [1] -0.297 | filanesib 0.076 | idasanutlin 0.088

NDRG1 (UniProt Q92597)
inactive: [3] 0.03 | lapatinib -0.108

NA, A0A494C071
inactive: [1] -0.265 | zotarolimus -0.011 | idasanutlin -0.392 | alisertib 0.016 | gefitinib 0.367 | [2] 0.143 | pictilisib 0.277

NDRG2 (UniProt G3V392)
inactive: [1] -0.059 | filanesib -0.082 | alisertib 0.016 | [3] -0.062 | [2] 0.149 | lapatinib -0.265

NCOA6 (UniProt Q14686)
inactive: [1] -0.019 | filanesib -0.047 | idasanutlin 0.078 | alisertib 0.017 | [3] 0.084 | gefitinib -0.053 | [2] 0.026 | lapatinib 0.108 | pictilisib -0.045

NCOA4 isoform 4 (UniProt Q13772)
inactive: zotarolimus -0.347 | pictilisib -0.28

NDUFC1 (UniProt O43677)
inactive: zotarolimus 0.112 | idasanutlin 0.086

NDEL1 isoform 2 (UniProt Q9GZM8)
inactive: zotarolimus -0.046 | idasanutlin 0.083 | alisertib -0.056 | [3] -0.109 | gefitinib -0.007 | [2] 0.079 | lapatinib -0.004 | pictilisib 0.007

NAP1L1 (UniProt B7Z9C2)
inactive: [1] -0.116 | idasanutlin -0.004 | alisertib 0.258 | gefitinib 0.03 | [2] 0.066 | pictilisib 0.111

NDUFA7 (UniProt M0R0N0)
inactive: filanesib -0.042

NA, A0A1W2PSA9
inactive: zotarolimus -0.275 | idasanutlin 0.049 | pictilisib -0.179

NCOA5 (UniProt Q9HCD5)
inactive: [1] 0.046 | filanesib 0.209 | [3] 0.04 | gefitinib 0.145 | lapatinib 0.047 | pictilisib -0.043

NDFIP2 (UniProt Q9NV92)
inactive: filanesib -0.488 | alisertib -0.396 | [3] -0.091 | [2] -0.065 | lapatinib 0.056

NDUFA3 (UniProt O95167)
inactive: filanesib 0.017 | zotarolimus -0.07 | idasanutlin 0.061 | alisertib -0.069 | [3] -0.037 | gefitinib 0.05 | [2] 0.091 | lapatinib -0.016 | pictilisib -0.077

NCOA1 (UniProt Q15788)
inactive: zotarolimus 0.142 | idasanutlin 0.065 | alisertib 0.047 | gefitinib 0.033 | [2] 0.024

NECTIN2 isoform 2 (UniProt Q92692)
inactive: [1] 0.106 | filanesib 0.094 | idasanutlin 0.061 | alisertib -0.016 | gefitinib -0.048 | [2] 0.093 | pictilisib -0.368

NASP isoform 2 (UniProt P49321)
inactive: alisertib -0.129 | [2] -0.58

NDUFV1 (UniProt E9PJL9)
inactive: [1] -0.116 | filanesib 0.021 | idasanutlin -0.037 | alisertib 0.086 | [3] 0.165 | gefitinib 0.081 | [2] -0.092 | lapatinib -0.189

NA (UniProt B2RBV5)
inactive: filanesib 0.081 | alisertib -0.043 | [3] 0.001 | gefitinib -0.33 | [2] 0.028 | lapatinib -0.243 | pictilisib 0.061

NANP (UniProt Q8TBE9)
inactive: filanesib -0.048 | zotarolimus 0.034 | idasanutlin -0.037 | alisertib -0.003 | [3] 0.089 | gefitinib 0.011 | [2] -0.049 | lapatinib 0.072 | pictilisib 0.094

NATD1 (UniProt Q8N6N6)
inactive: idasanutlin -0.017 | alisertib 0.037 | [3] 0.178 | gefitinib -0.016 | [2] -0.08 | lapatinib -0.115

NAIP (UniProt Q13075)
inactive: [1] -0.544 | [3] 0.347 | lapatinib -0.597

Pulled one by one from above, 2 records:
NDRG1 (UniProt Q92597)
inactive: [3] 0.03 | lapatinib -0.108

NCKIPSD (UniProt Q9NZQ3)
inactive: idasanutlin 0.021 | [3] -0.087 | lapatinib 0.122 | pictilisib 0.157

Next part.

NEB isoform 3 (UniProt P20929)
inactive: zotarolimus -0.098 | idasanutlin 0.12 | gefitinib 0.039 | pictilisib 0.076

MYOF (UniProt Q9NZM1)
inactive: idasanutlin -0.201

NCKAP5L (UniProt Q9HCH0)
inactive: [1] -0.149 | alisertib 0.11 | [3] -0.058 | [2] 0.156 | lapatinib 0.195
